No constants are given. Whether binding was seen depends on the method and setting. In cells and extracts the contact can be indirect. Some results given as binding are weak or reduced against the parent protein; the word gives no strength. Values belong to the molecule of their own block, whether it stands above or below them.
What was measured:
[1] = target: T1, calnexin (mouse brain) (mouse (endogenous in brain)) (UniProt P35564); test: co-IP; WT versus Cav3.2 KO mouse brain homogenates; precipitated with an anti-calnexin antibody, blotted for Cav3.2
T1 sequence: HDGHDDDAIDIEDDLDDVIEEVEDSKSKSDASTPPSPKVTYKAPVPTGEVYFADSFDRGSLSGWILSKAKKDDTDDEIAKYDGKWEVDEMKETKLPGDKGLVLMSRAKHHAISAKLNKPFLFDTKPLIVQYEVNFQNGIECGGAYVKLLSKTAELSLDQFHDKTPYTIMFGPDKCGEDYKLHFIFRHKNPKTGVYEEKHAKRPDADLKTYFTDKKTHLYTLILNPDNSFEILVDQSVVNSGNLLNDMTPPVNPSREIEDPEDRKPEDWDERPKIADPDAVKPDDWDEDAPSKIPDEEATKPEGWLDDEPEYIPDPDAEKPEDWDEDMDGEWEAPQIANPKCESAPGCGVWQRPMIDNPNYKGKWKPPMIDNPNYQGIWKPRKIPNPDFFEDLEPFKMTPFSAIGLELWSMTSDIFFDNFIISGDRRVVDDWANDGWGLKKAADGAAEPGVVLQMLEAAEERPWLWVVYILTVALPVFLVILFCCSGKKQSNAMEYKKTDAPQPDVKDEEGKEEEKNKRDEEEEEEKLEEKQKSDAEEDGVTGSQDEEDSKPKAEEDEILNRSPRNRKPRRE

Protein sequences, listed by entry. Tags and fused reporters are not part of them. Residues count along the entry.
UniProt O95180: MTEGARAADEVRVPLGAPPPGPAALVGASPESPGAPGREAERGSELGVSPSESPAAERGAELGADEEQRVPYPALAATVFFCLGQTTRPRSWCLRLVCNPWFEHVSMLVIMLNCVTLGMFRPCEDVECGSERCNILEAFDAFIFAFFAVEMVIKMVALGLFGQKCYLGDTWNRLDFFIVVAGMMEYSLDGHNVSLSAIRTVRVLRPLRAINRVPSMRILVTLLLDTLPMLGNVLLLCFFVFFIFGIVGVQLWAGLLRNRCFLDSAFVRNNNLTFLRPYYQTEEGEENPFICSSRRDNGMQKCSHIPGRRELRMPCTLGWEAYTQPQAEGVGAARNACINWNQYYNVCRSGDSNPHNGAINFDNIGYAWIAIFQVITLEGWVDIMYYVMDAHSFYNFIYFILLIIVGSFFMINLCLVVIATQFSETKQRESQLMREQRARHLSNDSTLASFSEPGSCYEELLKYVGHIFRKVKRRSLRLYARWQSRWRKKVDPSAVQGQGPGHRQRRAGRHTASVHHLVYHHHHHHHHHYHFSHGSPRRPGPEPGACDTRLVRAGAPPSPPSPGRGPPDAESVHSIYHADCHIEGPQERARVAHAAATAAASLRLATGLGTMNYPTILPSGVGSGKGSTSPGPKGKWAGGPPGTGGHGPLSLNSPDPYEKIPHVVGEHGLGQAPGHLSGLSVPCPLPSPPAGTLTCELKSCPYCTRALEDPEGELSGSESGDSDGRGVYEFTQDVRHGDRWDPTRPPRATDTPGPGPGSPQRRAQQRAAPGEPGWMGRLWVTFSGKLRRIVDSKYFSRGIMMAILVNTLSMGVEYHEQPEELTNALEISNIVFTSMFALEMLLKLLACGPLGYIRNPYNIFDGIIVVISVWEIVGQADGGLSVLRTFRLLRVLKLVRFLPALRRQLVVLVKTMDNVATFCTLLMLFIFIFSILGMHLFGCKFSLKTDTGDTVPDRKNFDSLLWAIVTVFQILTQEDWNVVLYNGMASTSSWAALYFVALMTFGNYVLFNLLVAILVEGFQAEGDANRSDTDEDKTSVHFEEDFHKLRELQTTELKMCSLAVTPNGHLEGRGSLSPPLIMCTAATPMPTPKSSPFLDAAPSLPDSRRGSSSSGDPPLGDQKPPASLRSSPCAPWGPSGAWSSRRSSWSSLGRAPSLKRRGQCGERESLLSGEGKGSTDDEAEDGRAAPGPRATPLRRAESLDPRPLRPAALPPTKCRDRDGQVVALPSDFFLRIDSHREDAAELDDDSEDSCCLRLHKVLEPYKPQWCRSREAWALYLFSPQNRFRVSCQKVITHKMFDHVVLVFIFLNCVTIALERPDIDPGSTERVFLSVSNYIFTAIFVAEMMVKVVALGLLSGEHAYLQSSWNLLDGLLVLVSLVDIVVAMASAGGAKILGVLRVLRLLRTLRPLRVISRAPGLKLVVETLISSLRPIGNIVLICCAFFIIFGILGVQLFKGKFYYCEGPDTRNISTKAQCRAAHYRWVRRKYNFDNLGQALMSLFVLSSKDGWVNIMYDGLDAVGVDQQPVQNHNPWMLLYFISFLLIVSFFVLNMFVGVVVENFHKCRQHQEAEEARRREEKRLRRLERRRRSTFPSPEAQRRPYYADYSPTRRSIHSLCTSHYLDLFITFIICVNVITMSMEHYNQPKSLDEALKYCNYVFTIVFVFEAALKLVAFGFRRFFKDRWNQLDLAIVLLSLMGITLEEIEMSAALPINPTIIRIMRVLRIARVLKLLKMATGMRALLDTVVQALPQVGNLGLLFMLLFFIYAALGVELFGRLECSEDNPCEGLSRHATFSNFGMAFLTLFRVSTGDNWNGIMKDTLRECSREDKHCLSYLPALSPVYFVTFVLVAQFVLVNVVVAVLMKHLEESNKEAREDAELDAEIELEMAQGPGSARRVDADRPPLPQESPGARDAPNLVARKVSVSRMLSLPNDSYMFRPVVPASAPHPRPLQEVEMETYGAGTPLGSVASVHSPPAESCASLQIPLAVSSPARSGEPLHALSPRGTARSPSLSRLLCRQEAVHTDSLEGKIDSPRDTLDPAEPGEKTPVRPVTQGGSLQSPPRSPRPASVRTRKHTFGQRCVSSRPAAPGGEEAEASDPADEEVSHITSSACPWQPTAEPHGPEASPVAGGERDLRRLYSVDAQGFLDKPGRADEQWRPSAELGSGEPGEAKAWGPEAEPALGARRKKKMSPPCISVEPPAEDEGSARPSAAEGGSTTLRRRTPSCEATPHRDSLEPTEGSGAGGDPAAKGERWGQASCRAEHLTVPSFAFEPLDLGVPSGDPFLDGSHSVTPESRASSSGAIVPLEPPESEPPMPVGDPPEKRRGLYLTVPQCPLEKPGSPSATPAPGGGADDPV
UniProt O88427: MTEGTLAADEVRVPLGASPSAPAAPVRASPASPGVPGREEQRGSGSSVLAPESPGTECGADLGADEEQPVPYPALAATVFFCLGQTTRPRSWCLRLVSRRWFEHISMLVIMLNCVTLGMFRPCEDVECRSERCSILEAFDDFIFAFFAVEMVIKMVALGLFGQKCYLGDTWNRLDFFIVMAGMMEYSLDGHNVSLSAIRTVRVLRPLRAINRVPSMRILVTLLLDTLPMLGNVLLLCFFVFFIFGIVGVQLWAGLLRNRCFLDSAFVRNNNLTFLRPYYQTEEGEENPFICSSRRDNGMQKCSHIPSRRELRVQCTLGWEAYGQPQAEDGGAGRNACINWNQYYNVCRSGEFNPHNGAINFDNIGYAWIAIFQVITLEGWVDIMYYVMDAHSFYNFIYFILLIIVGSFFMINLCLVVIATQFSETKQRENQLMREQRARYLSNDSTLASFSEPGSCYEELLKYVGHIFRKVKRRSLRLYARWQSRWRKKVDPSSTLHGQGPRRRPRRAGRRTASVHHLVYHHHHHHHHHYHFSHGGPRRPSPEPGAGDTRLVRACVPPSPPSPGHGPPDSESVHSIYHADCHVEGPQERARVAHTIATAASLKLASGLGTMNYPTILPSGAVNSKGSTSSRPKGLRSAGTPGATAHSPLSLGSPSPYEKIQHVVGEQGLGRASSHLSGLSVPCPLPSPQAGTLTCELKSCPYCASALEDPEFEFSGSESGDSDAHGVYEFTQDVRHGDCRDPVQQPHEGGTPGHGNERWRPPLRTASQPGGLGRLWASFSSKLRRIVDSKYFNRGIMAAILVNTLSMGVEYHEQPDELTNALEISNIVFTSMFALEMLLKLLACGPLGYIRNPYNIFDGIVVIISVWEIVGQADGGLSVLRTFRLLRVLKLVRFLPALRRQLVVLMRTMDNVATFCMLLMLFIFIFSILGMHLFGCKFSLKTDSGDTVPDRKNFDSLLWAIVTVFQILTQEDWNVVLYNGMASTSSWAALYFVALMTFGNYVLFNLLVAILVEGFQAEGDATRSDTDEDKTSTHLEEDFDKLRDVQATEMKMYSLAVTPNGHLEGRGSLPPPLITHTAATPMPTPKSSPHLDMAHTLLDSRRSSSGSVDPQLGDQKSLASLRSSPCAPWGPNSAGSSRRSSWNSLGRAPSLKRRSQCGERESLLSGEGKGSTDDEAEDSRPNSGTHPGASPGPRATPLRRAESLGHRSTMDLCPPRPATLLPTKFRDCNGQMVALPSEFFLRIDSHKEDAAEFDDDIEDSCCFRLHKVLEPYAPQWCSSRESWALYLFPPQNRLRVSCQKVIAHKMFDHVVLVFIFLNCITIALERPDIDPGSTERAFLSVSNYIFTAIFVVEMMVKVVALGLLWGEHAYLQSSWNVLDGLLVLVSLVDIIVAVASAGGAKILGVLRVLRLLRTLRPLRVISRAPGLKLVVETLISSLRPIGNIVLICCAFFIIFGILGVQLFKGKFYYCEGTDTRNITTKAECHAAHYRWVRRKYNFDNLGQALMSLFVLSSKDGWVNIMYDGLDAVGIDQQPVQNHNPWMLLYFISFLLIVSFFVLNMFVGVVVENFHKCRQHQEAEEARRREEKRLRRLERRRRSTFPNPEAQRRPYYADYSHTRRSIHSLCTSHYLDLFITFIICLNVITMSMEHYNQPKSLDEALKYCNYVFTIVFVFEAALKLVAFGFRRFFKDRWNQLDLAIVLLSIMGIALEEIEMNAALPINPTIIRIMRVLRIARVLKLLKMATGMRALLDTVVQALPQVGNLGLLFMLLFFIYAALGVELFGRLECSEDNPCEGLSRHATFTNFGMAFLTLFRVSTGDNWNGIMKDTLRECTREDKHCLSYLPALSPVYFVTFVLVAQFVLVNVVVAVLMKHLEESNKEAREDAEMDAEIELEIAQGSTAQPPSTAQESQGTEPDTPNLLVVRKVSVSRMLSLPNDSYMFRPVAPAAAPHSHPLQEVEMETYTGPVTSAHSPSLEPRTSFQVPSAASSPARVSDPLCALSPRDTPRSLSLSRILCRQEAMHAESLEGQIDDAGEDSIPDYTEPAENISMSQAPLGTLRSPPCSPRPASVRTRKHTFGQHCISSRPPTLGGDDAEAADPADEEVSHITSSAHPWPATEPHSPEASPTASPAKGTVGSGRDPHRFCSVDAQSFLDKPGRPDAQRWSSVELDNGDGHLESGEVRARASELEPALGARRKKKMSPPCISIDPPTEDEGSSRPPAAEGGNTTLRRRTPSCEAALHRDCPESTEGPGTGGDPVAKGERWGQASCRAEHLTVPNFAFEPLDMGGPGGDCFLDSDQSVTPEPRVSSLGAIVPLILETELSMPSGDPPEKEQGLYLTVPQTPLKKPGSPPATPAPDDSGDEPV
UniProt P18418, residues 18-416: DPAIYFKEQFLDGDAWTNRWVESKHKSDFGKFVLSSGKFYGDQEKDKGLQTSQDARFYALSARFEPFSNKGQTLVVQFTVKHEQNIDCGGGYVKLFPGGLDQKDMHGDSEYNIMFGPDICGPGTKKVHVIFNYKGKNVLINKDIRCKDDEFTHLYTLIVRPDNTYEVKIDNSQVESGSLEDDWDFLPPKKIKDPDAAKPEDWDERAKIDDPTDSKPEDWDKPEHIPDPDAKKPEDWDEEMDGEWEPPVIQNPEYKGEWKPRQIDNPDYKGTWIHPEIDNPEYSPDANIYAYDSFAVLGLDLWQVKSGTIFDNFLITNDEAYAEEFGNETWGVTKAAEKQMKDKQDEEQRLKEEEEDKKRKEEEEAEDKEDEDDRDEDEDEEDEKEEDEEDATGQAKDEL

[2] = target: T2, calnexin (rat brain) (rat (endogenous in brain)) (UniProt P35565); test: co-IP; 10% rat brain homogenate (also NEC versus GAERS brain) in 50 mM TrisHCl pH 8.0, 300 mM NaCl, 0.5% Triton X100, 0.5% DOC; rabbit polyclonal anti-CNX overnight at 4 °C, Sepharose G beads; blotted for Cav3.2; signal normalised to precipitated calnexin
T2 sequence: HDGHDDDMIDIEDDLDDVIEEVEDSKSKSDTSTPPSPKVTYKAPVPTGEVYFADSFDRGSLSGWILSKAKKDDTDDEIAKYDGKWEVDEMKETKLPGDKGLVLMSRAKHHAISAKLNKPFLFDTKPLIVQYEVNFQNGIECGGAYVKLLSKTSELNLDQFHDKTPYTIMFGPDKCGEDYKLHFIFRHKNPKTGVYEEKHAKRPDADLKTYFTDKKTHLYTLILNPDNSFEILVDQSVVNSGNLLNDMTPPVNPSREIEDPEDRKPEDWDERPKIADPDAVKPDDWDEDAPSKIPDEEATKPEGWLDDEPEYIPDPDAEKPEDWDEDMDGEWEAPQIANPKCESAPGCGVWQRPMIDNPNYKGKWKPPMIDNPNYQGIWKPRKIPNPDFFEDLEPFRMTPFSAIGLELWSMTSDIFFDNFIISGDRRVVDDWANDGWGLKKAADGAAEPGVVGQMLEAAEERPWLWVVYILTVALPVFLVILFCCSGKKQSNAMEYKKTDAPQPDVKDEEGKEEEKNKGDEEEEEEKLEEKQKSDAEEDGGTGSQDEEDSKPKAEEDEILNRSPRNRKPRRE

[3] = target: Cav3.2 T-type calcium channel (rat brain; non-epileptic control strain) (rat (endogenous in brain)) (UniProt Q9EQ60); test: co-IP; brain homogenate (Fig. S1); native calreticulin and BiP detected by blot; catching antibody not told for this experiment
[4] = target: HA-tagged human Cav3.2 channel (human) (UniProt O95180); test: co-IP; tsA-201 cells 72 h after transfection, NP40 lysis buffer (50 mM Tris, 150 mM NaCl, 1% NP40, pH 8.0); precipitated with anti-HA (hCav3.2-HA), blotted with anti-CNX or anti-mCherry

binding [1]: binds
Molecule: Cav3.2 T-type calcium channel (mouse brain) (from UniProt O88427 1-2365)

binding [2]: binds
Molecule: Cav3.2 T-type calcium channel (rat brain; non-epileptic control strain) (from UniProt Q9EQ60 1-2359)

binding [3]: no binding
Molecule: calreticulin (brain homogenate) (from UniProt P18418 18-416)

binding [4]: binds
B1: calnexin in tsA-201 cells (protein, UniProt P27824 21-592)
chain: HDGHDDDVIDIEDDLDDVIEEVEDSKPDTTAPPSSPKVTYKAPVPTGEVYFADSFDRGTLSGWILSKAKKDDTDDEIAKYDGKWEVEEMKESKLPGDKGLVLMSRAKHHAISAKLNKPFLFDTKPLIVQYEVNFQNGIECGGAYVKLLSKTPELNLDQFHDKTPYTIMFGPDKCGEDYKLHFIFRHKNPKTGIYEEKHAKRPDADLKTYFTDKKTHLYTLILNPDNSFEILVDQSVVNSGNLLNDMTPPVNPSREIEDPEDRKPEDWDERPKIPDPEAVKPDDWDEDAPAKIPDEEATKPEGWLDDEPEYVPDPDAEKPEDWDEDMDGEWEAPQIANPRCESAPGCGVWQRPVIDNPNYKGKWKPPMIDNPSYQGIWKPRKIPNPDFFEDLEPFRMTPFSAIGLELWSMTSDIFFDNFIICADRRIVDDWANDGWGLKKAADGAAEPGVVGQMIEAAEERPWLWVVYILTVALPVFLVILFCCSGKKQTSGMEYKKTDAPQPDVKEEEEEKEEEKDKGDEEEEGEEKLEEKQKSDAEEDGGTVSQEEEDRKPKAEEDEILNRSPRNRKPRRE

Source: article PMC5599688
